Test results reported in article PMC12287301.
Results are given in words; binding and its absence hold for the method and conditions named. Binding seen in cells or lysates may run through a third protein. A result given as binding can be weak or reduced; the word gives no strength. Sequences can lack the tags named with a protein.

Protein sequences, listed by entry. Tags and fused reporters are not part of them. Lines headed by an entry give the natural chain unless they say otherwise; changes in a name come on top.
UniProt Q9CAG8: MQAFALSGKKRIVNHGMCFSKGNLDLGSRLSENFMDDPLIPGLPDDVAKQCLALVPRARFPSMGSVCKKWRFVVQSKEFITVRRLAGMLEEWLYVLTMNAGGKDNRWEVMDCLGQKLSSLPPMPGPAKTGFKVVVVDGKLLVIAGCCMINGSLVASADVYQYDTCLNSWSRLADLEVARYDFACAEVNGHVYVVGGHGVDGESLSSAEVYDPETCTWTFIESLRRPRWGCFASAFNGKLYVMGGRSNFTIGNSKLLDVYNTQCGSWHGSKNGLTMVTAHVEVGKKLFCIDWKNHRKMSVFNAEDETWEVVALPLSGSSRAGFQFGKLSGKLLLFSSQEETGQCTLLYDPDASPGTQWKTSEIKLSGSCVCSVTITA

Target: HA-LAO1 (Arabidopsis thaliana) (UniProt Q9CAG8)
Assay: pull-down; semi-in vivo pull-down: HA-LAO1 enriched from 35S: HA-LAO1 seedling extract on anti-HA affinity beads, washed, mixed with 1 ug purified His-tagged protein for 3 h at 4 C in IP buffer (50 mM Tris-HCl pH 7.5, 150 mM NaCl, 1 mM MgCl2, 0.1% NP40); blots anti-His and anti-HA; only the binder purified

- binding: binds
B1: His-DSK2B (protein, UniProt Q9SII8 1-551)
chain: MGGEGDSSQPQSGEGEAVAVNIRCSNGTKFSVKTSLDSTVESFKELVAQSSDVPANQQRLIYKGRILKDDQTLLSYGLQADHTIHMVRGSAPSSAPPPAPAASQTTAPSVTRGVGSDNSSNLGGASPGESLFPGLGFNPLGGGNAMSGLFGAGLPDLVQTQQQLAQNPNMIRDMMNTPAIQNLMNNPEFMRSMIMNNPQMRELVDRNPELGHVLNDPSILRQTLEAARNPELMREMMRNTDRAMSNIESMPEGFNMLRRMYENVQEPLMNATTMSGNAGNNTGSNPFAALLGNQGVTTQGSDASNNSSTPNAGTGTIPNANPLPNPWGATGGQTTAPGRTNVGGDARSPGLGGLGGLGSLGGLGGLGMLGADSPLGATPDASQLSQLLQNPAISQMMQSVFSNPQYMNQLMSLNPQLRSMLDSNPQLREMMQNPDFLRQFSSPEMMQQMMTLQQSLSQNRNTASQDAGQTGAATGNNGGLDLLMNMFGSLGAGGLSGTNQSNVPPEERYATQLQQLQEMGFYDRAENIRALLATNGNVNAAVERLLGSIGQ
